PubChem BioAssay AID1259254 | NCATS | 2017
The whole screen tested about 59,000 reagents; shown is a random part of them. Over the whole deposit, about 1,550 (2.6%) were called active. 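G2 share is only a proxy for re-replication; each gene was hit by three separate siRNAs, and active genes were retested.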 Raw values vary from plate to plate and are shown uncorrected. The numbers tell different reagents against one gene apart. Not given: the amount of reagent.

- Test: 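Finding genes that stop cells copying their DNA twice in one cycle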 (primary screen)
- Cell system: human HCT116 colorectal cancer cells
- Reagent: single siRNA against human genes
- Time to read-out: 3 days
- Detection: 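Nuclei stained with Hoechst and imaged; cell-cycle phase assigned by DNA content; G2 share scaled per plate, non-targeting siRNA 0%, GMNN siRNA 100%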
- Direction: G2 robust z-score and G2 cells, % of GMNN control: higher = more G2 cells, more excess DNA replication; raw share of cells in G2: higher = larger share of cells with G2 DNA content
- Hit rule: 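An siRNA counts as active if its G2 robust z-score lies at least 5 MADs above the screen median; here such calls match roughly 38% of GMNN control or more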

| Gene | reagent no. | G2 robust z-score | G2 cells, % of GMNN control | raw share of cells in G2 (%) | Call |
| --- | --- | --- | --- | --- | --- |
| OR5AP2 | 1 | 0.266 | 4.84 | 5.65 | inactive |
| OR5AP2 | 2 | -0.0556 | 2.58 | 4.39 | inactive |
| OR5AP2 | 3 | -0.41 | 0.0841 | 4.22 | inactive |
| TXNRD2 | 1 | -0.977 | -3.91 | 4 | inactive |
| TXNRD2 | 2 | -0.294 | 0.901 | 4.13 | inactive |
| TXNRD2 | 3 | -0.251 | 1.2 | 6.95 | inactive |
| ZFP36L1 | 1 | 6.68 | 50 | 21.7 | active |
| ZFP36L1 | 2 | 0.789 | 8.52 | 8.11 | inactive |
| ZFP36L1 | 3 | -1.29 | -6.12 | 1.71 | inactive |
| KLRA1P | 1 | -1.67 | -8.8 | 3.01 | inactive |
| KLRA1P | 2 | -0.984 | -3.95 | 2.56 | inactive |
| KLRA1P | 3 | 1.54 | 13.8 | 11.7 | inactive |
| APBA1 | 1 | 0.853 | 8.97 | 7.02 | inactive |
| APBA1 | 2 | 0.454 | 6.16 | 7.73 | inactive |
| APBA1 | 3 | -0.281 | 0.991 | 3.47 | inactive |
| MVB12A | 1 | 2.45 | 20.2 | 9.35 | inactive |
| MVB12A | 2 | 0.0848 | 3.56 | 2.86 | inactive |
| MVB12A | 3 | 0.813 | 8.69 | 7.57 | inactive |
| HNRNPF | 1 | 1.72 | 15.1 | 12.4 | inactive |
| HNRNPF | 2 | -1.44 | -7.14 | 1.47 | inactive |
| HNRNPF | 3 | -0.684 | -1.84 | 2.8 | inactive |
| SLC30A5 | 1 | -0.362 | 0.421 | 4.38 | inactive |
| SLC30A5 | 2 | -0.55 | -0.901 | 4.03 | inactive |
| SLC30A5 | 3 | 0.242 | 4.67 | 7.58 | inactive |
| ITIH5 | 1 | 1.83 | 15.8 | 9.93 | inactive |
| ITIH5 | 2 | 0.661 | 7.62 | 8.6 | inactive |
| ITIH5 | 3 | -1.04 | -4.38 | 3.17 | inactive |
| NOC2L | 1 | 0.589 | 7.11 | 5.79 | inactive |
| NOC2L | 2 | 0.556 | 6.88 | 7 | inactive |
| NOC2L | 3 | 0.689 | 7.81 | 7.32 | inactive |

Hits, among the entries above:
| Gene | reagent no. | G2 robust z-score | G2 cells, % of GMNN control | raw share of cells in G2 (%) | Call |
| --- | --- | --- | --- | --- | --- |
| ZFP36L1 | 1 | 6.68 | 50 | 21.7 | active |
